Laboratory results published in US20080044436A1, “Method for Screening and Compositions for Treating Cancers” (priority 2004, published 2008).
Results are given in words; binding and its absence hold for the method and conditions named. Binding seen in cells or lysates may run through a third protein. A result given as binding can be weak or reduced; the word gives no strength. Sequences can lack the tags named with a protein.

Target: Estrogen receptor (ER)
Assay: GST pull-down on glutathione-Sepharose, 35S-labelled ER

B1: GST-TReP-132 wt fusion protein (protein, not shown: a dimerising Fc or GST; large carriers; small tags and cut ends)
chain: MGDQQLYKTNHVAHGSENLFYQQPPLGVHSGLNHNYGNAVTGGGMDAPQASPISPHFPQDTRDGLGLPVGSKNLGQMDTSRQGGWGSHAGPGNHVQLRGNLANSNMMWGAPAQAEPTDGYQYTYSQASEIRTQKLTSGVLHKLDSFTQVFANQNLRIQVNNMAQVLHTQSAVMDGAPDSALRQLLSQKPMEPPAPAIPSRYQQVPQQPHPGFTGGLSKPALQVGQHPTQGHLYYDYQQPLAQVPVQGGQPLQAPQMLSQHMQQMQQHQYYPPQQQQQAGQQRISMQEIQTQPQQIRPSQPQPPPQQQQPQQLQLQQRQGSMQIPQYYQPQPMMQHLQEQQQQQMHLQPPSYHRDPHQYTPEQAHTVQLIPLGSMSQYYYQEPQQPYSHPLYQQSHLSQHQQREDSQLKTYSSDRQAQAMLSSHGDLGPPDTGMGDPASSDLTRVSSTLPHRPLLSPSGIHLNNMGPQHQQLSPSAMWPQMHLPDGRAQPGSPESSGQPKGAFGEQFDAKNKLTCSICLKEFKNLPALNGHMRSHGGMRASPNLKQEEGEKVLPPQPQPPLPPPPPPPPPPQLPPEAESLTPMVMPVSVPVKLLPPKPSSQGFTNSTVAAPSARDKPASSMSDDEMPVLEIPRKHQPSVPKAEEPLKTVQEKKKFRHRPEPLFIPPPPSYNPNPAASYSGATLYQSQLRSPRVLGDHLLLDPTHELPPYTPPPMLSPVRQGSGLFSNVLISGHGPGAHPQLPLTPLTPTPRVLLCRSNSIDGSNVTVTPGPGEQTVDVEPRINIGLRFQAEIPELQDISALAQDTHKATLVWKPWPELENHDLQQRVENLLNLCCSSALPGGGTNSEFALHSLFEAKGDVMVALEMLLLRKPVRLKCHPLANYHYAGSDKWTSLERKLFNKALATYSKDFIFVQKMVKSKTVAQCVEYYYTWKKIMRLGRKHRTRLAEIIDDCVTSEEEEELEEEEEEDPEEDRKSTKEEESEVPKSPEPPPVPVLAPTEGPPLQALGQPSGSFICEMPNCGAVFSSRQALNGHARIHGGTNQVTKARGAIPSGKQKPGGTQSGYCSVKSSPSHSTTSGETDPTTIFPCKECGKVFFKIKSRNAHMKTHRQQEEQQRQKAQKAAFAAEMAATIERTTGPVGAPGLLPLDQLSLIKPIKDVDILDDDVVQQLGGVMEEAEVVDTDLLLDDQDSVLLQGDAEL
modifications: N-terminal GST fusion (pGEX-2TK) is left out of the letters
**Q.** For B1, which binding is on record?
**A.** binds
